Data from US20220381657A1, “METHOD FOR PREPARING BIOLOGICAL MATERIAL HAVING EXCELLENT LIGHT-TRANSMITTING PROPERTY” (RIKEN, priority 2016, published 2022).
At least one structure is not confirmed: it was looked up by name or label, or the drawing left a doubt.

Tests used:
[1] = not given; remark: listed apart in the source

Structure (SMILES): C1CCC2=NCCCN2CC1.O=C1NC(=O)c2ccccc21 [#1181, Phthalimide DBU salt]
- OD400: 0.049
- pH [1]: 6.0
